# Primary screen of a compound library

Protein sequences, listed by entry. Tags and fused reporters are not part of them. Residues count along the entry.
UniProt I6X8D2, whole entry: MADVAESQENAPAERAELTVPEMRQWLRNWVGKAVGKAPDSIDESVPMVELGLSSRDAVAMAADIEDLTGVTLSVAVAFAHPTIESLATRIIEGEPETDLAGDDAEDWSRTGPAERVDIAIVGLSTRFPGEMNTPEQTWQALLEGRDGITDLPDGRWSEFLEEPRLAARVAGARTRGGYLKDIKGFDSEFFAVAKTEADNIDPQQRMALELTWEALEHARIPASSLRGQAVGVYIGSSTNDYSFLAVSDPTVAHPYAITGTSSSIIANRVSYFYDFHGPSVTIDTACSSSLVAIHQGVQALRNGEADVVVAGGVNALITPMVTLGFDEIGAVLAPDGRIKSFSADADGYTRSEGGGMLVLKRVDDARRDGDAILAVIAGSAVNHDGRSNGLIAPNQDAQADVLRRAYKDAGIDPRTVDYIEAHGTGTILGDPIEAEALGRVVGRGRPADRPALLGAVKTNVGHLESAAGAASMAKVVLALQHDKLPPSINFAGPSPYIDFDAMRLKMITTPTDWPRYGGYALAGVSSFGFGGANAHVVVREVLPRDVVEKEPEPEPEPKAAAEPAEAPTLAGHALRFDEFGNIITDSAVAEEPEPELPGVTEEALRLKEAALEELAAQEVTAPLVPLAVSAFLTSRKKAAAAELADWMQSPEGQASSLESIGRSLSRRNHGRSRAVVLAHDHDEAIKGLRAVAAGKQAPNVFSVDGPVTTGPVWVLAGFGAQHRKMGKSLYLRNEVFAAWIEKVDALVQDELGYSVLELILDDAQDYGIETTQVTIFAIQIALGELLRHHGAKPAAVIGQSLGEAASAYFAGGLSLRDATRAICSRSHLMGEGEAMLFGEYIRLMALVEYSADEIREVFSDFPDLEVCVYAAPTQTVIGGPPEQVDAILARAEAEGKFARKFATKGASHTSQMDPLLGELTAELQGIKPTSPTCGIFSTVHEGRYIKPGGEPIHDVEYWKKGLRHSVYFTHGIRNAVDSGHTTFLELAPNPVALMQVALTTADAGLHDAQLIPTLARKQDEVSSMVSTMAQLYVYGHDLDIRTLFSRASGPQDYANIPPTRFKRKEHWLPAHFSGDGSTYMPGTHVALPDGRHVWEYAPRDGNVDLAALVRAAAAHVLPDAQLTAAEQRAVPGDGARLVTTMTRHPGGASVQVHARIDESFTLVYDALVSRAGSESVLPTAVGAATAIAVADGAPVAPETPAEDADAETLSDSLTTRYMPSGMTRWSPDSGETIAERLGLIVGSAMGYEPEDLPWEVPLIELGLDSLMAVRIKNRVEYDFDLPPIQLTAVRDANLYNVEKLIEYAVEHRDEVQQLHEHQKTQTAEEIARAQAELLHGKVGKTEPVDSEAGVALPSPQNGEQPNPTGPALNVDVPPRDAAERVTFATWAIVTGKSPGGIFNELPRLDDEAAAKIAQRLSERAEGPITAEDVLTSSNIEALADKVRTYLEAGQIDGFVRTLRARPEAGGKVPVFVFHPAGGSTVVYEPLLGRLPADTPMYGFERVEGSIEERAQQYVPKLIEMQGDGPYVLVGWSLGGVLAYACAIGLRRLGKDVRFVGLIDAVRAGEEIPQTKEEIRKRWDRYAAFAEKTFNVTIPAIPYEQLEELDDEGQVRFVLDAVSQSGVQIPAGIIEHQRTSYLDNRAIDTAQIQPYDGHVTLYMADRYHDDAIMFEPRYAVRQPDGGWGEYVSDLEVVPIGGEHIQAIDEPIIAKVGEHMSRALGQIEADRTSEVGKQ
UniProt Q8IDJ8, 1-583: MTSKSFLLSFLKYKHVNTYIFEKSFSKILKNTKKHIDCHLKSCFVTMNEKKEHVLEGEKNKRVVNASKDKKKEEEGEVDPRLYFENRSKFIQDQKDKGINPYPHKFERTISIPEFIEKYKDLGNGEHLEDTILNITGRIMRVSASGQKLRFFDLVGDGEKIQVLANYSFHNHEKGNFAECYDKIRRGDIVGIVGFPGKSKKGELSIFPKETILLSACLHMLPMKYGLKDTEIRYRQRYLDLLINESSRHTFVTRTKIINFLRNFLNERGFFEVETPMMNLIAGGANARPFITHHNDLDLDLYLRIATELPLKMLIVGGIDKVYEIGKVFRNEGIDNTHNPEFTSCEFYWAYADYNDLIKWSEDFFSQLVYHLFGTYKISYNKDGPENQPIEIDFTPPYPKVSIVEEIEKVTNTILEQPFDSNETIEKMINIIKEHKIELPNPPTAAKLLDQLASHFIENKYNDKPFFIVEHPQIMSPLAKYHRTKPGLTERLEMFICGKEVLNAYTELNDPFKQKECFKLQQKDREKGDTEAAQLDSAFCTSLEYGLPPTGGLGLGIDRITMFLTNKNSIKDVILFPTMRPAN
UniProt A4I591, 1-473: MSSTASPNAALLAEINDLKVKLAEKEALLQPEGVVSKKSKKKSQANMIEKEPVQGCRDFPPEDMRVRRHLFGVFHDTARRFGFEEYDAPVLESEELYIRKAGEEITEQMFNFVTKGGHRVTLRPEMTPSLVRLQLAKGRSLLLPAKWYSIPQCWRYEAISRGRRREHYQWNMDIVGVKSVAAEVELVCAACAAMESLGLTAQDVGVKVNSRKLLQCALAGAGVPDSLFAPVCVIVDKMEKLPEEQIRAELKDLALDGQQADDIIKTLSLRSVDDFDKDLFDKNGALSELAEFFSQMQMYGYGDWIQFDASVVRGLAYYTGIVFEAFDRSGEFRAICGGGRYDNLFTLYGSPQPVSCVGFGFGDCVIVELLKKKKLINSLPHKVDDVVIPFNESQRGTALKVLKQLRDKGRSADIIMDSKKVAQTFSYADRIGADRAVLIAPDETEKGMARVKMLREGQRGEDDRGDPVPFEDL
UniProt Q4DA54, 1-478: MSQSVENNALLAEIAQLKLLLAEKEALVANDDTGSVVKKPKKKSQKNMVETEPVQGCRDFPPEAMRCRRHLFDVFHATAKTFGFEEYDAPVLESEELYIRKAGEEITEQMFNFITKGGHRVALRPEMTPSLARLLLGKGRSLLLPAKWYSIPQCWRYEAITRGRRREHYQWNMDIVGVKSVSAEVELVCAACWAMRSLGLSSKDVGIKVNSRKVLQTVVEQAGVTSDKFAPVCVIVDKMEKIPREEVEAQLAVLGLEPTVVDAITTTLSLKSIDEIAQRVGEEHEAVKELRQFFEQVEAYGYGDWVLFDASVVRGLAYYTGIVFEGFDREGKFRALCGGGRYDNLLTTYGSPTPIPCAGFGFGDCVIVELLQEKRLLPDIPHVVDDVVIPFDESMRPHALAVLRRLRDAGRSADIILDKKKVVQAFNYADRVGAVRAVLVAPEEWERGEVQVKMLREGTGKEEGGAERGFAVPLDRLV

The filed quantity is “Percent Effect” (%). The record does not define 0% and 100%; most values in the screen are far below 50% and negative numbers occur (in some assays of this library far below -100). Compounds were drawn at random from those tested, without regard to their results.

A: 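Polyketide synthase Pks13, Mycobacterium tuberculosis (UniProt I6X8D2). Enzyme assay of the thioesterase domain of polyketide synthase 13; the read-out is not stated. Compounds at 30 µM. The record gives no direction; the compounds picked for IC50 retests had high values, so higher reads as stronger inhibition. Of about 67,000 compounds tested this way, about 300 (0.46%) reached 50% or more in at least one test.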
B: 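Enzyme assay of the cytosolic lysyl-tRNA synthetase in 384-well plates, read by luminescence. Target: Lysine-tRNA ligase, Plasmodium falciparum 3D7 (UniProt Q8IDJ8). Compounds at 30 µM. Higher reads as stronger inhibition, judged from the few compounds that gave an IC50. Of about 69,000 compounds tested this way, about 49 (0.071%) reached 50% or more in at least one test.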
C: 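Enzyme assay of histidyl-tRNA synthetase; the read-out is not stated. Target: Histidine-tRNA ligase, Leishmania infantum (UniProt A4I591). Concentration: 30 µM. The record gives no direction; compounds that gave an IC50 in retests scored well above the rest, so higher reads as stronger inhibition. The assay is labelled LdHisRS but filed under L. infantum. About 69,000 compounds were tested under these conditions; 0.6% (about 410) showed 50% or more at least once.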
D: 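Histidine-tRNA ligase, Trypanosoma cruzi CL Brener (UniProt Q4DA54). Enzyme assay of histidyl-tRNA synthetase; the read-out is not stated. Concentration: 30 µM. Direction is inferred from retests: higher values go with stronger inhibition. Size under these conditions: about 69,000 compounds, about 31 of them at 50% or above in at least one test.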

{"compound": "COCC(=O)Nc1ccc(N2CCC(OC)CC2)c(C(F)(F)F)c1", "A": -18.31, "B": 3.345, "C": 4.286, "D": 4.255}
{"compound": "CC(Cc1cccnc1)Nc1ncnc2cccc(F)c12", "stereo": "centres unmarked", "A": -6.41, "B": 3.172, "C": 8.065, "D": 5.844}
{"compound": "O=C(N[C@@H]1CN(Cc2cccs2)[C@@H]2CCCO[C@@H]21)c1cscn1", "A": -29.17, "B": 2.807, "C": 17.14, "D": 0}
{"compound": "O=C(C1CC=CC1)N1C[C@@H]2[C@@H](C1)OCC(=O)N2Cc1cccnc1", "A": -0.2761, "B": 2.853, "C": 6.796, "D": 2.174}
{"compound": "CC(C)c1n[nH]c(C2CN(C(=O)c3cn4ccccc4n3)CCO2)n1", "stereo": "centres unmarked", "A": -26.39, "B": -1.68, "C": 6.14, "D": -1.156}
{"compound": "CCc1noc(CS(=O)(=O)C(C)c2nc(C3CC3)no2)n1", "stereo": "centres unmarked", "A": 3.596, "B": -1.397, "C": -4.274, "D": 8.889}
{"compound": "O=C(c1ccco1)N1CCCC(c2cc(C(F)(F)F)[nH]n2)C1", "stereo": "centres unmarked", "A": 10.13, "B": -0.1588, "C": 2.632, "D": 2.89}
{"compound": "COc1cc(NC2CCCNC2)cc(OC)c1", "stereo": "centres unmarked", "A": -3.879, "B": 4.392, "C": -2.74, "D": 1.587}
{"compound": "C/C=C(/C)C(=O)NS(=O)(=O)c1ccc(Cl)cn1", "A": -5.535, "B": -1.276, "C": 1.667, "D": 5.882}
{"compound": "Fc1cccc(-c2nnn3c2COC(CNc2ncccn2)C3)c1", "stereo": "centres unmarked", "A": -50.02, "B": -1.042, "C": -31, "D": 5.102}
{"compound": "O=C(NC1(c2cccc(F)c2)CCOCC1)c1ccccn1", "A": -12.52, "B": -8.689, "C": 0.9434, "D": 4.184}
{"compound": "O=C(c1c[nH]c2ccccc2c1=O)N1CCSCC1", "A": -28.18, "B": 1.207, "C": 16.87, "D": 10.5}
{"compound": "Cc1nn(CCC(=O)NC2CCS(=O)(=O)C2)c(C)c1Br", "stereo": "centres unmarked", "A": -16.21, "B": 2.185, "C": 17.7, "D": 2.632}
{"compound": "CCCC(=O)N1CCCN(C(=O)Nc2ccc(C)s2)CC1", "A": -2.915, "B": 5.455, "C": 24.66, "D": 8.421}
{"compound": "Cc1c[nH]c(CN(C)C(C(=O)O)c2c(F)cccc2Cl)n1", "stereo": "centres unmarked", "A": -8.718, "B": 2.416, "C": 24.18, "D": 11.45}
{"compound": "Cc1cnc(CNCc2cn(CCN3CCSCC3)nc2C)cn1", "A": 1.065, "B": -1.069, "C": 4.918, "D": 2.146}
{"compound": "CCOc1cccc(CNC(=O)CN2CCC3(CCOC3)C2)c1", "stereo": "centres unmarked", "A": 5.445, "B": 2.551, "C": 2.128, "D": 5.202}
{"compound": "Cc1csc(C2(NCc3nc(-c4ccco4)oc3C)CCCC2)n1", "A": -16.82, "B": 2.842, "C": 15.79, "D": -0.8403}
{"compound": "Cc1ccc(C(O)CNC(=O)NCc2csc(C)n2)cc1", "stereo": "centres unmarked", "A": -1.523, "B": 1.279, "C": 20, "D": 7.018}
{"compound": "Cc1cc(C(=O)N2CCOC(c3ccc(Cl)c(Cl)c3)C2)[nH]n1", "stereo": "centres unmarked", "A": -13.82, "B": 3.67, "C": 14.29, "D": -2.564}
{"compound": "O=C(NCC(F)F)c1ccc(S(=O)(=O)NCCc2cn[nH]c2)cc1", "A": -13.91, "B": 3.956, "C": 18.03, "D": 4}
{"compound": "N#Cc1ccc(N2CCCC3(CCN(c4cccnc4)CC3)C2)cc1", "A": 10.02, "B": 3.42, "C": 51.39, "D": 14.29}
{"compound": "O=C(N[C@@H]1CCNC[C@H]1O)c1ccccc1OC(F)(F)C(F)F", "A": -26.66, "B": 4.809, "C": -27.63, "D": 7.389}
{"compound": "CN(CCC(=O)NC1CC1)Cc1ccc(Cl)s1", "A": 7.017, "B": 5.312, "C": 9.649, "D": 10.34}
{"compound": "O=C1CC(c2ccc(O)cc2)c2c(n3ccsc3nc2=O)N1", "stereo": "centres unmarked", "A": -33, "B": 4.679, "C": 23.68, "D": 2.924}
{"compound": "CCc1ncc2c(n1)CN(C(=O)c1c(C)[nH]c3c1C(=O)CCC3)C2", "A": -18, "B": -3.752, "C": 15.38, "D": 1.149}

2 of the entries, repeated:

{"compound": "Cc1cnc(CNCc2cn(CCN3CCSCC3)nc2C)cn1", "A": 1.065, "B": -1.069, "C": 4.918, "D": 2.146}
{"compound": "Cc1csc(C2(NCc3nc(-c4ccco4)oc3C)CCCC2)n1", "A": -16.82, "B": 2.842, "C": 15.79, "D": -0.8403}

Source: ChEMBL document CHEMBL3988442, “University of Dundee, Small-Polar-MMV Screening Library” (2021).